Tested on: K11 (HPV E7 transformed human keratinocyte line)
Test: Secondary assay: cell proliferation WST-1, K11
Format: cell-based
Conditions: K11 cells, 48 hours, read-out: Cell Proliferation Inhibition WST-1 (IC50 unless otherwise specified) K11
Method: Compounds with HDAC inhibition activity, as determined using the primary assay, were subsequently evaluated using secondary cell-based assays. […] Assay Method
Cells were plated in 96-well plates at 3-10×10^3 cells/well in 100 μL of culture medium. The following day, different concentrations of candidate compounds were added and the cells incubated at 37° C. for 48 hours. Subsequently, 10 μL/well of WST-1 reagent was added and the cells reincubated for 1 hour. After the incubation time, absorbance was measured.
WST-1 is a tetrazolium salt which is cleaved to formazan dye by cellular enzymes. An expansion in the number of viable cells results in an increase in the overall activity of mitochondrial dehydrogenases in the sample. This augmentation in the enzyme activity leads to an increase in the amount of formazan dye formed, which directly correlates to the number of metabolically active cells in the culture. The formazan dye produced is quantified by a scanning multiwell spectrophotometer by measuring the absorbance of the dye solution at 450 nm wavelength (reference wavelength 690 nm).
IC50 values were calculated using the software package Prism 3.0 (GraphPad Software Inc., San Diego, Calif.), setting top value at 100 and bottom value at 0.

With `O=C(CCCCCCC(=O)Nc1ccccc1)NO` [SAHA, Suberoylanilide Hydroxamic Acid, reference compound] the IC50 was 6.82 µM.

From patent publication US7465719B2, “Carbamic acid compounds comprising an ester or ketone linkage as HDAC inhibitors” (Topotarget UK Limited, priority 2003, dated 2008)
